Measured values: the supplement of paper PMC10849652
Some of the results follow.

Amino acid sequences for entries named in this document (tags omitted). A change or cut given only in a name is not applied to a line headed by its entry.
UniProt Q9BT40: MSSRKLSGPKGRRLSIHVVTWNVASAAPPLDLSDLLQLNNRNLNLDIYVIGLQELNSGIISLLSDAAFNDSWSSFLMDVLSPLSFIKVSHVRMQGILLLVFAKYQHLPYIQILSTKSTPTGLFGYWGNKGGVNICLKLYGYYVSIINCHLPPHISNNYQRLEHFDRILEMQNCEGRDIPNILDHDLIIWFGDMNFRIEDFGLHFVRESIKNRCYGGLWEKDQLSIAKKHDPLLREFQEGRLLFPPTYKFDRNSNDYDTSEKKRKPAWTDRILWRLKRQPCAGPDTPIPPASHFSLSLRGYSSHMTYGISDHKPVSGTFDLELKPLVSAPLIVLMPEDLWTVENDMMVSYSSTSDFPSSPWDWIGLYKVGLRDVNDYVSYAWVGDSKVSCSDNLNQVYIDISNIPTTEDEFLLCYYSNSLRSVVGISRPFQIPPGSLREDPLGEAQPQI
UniProt P10809, whole entry, looked up: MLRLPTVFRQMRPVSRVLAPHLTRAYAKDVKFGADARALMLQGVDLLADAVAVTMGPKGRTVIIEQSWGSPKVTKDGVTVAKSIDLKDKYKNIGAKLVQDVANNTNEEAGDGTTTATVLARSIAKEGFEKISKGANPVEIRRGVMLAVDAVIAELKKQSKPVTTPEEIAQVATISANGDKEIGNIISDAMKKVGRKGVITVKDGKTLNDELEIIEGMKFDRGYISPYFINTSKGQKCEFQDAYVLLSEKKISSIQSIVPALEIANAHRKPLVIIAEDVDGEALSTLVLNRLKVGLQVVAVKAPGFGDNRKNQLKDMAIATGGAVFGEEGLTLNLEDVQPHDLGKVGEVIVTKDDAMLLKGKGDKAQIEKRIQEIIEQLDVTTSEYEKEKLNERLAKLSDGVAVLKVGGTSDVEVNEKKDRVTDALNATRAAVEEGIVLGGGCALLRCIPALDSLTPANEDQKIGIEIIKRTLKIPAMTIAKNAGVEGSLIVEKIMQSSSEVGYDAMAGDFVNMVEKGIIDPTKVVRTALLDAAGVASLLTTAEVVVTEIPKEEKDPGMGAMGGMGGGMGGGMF
UniProt Q92598: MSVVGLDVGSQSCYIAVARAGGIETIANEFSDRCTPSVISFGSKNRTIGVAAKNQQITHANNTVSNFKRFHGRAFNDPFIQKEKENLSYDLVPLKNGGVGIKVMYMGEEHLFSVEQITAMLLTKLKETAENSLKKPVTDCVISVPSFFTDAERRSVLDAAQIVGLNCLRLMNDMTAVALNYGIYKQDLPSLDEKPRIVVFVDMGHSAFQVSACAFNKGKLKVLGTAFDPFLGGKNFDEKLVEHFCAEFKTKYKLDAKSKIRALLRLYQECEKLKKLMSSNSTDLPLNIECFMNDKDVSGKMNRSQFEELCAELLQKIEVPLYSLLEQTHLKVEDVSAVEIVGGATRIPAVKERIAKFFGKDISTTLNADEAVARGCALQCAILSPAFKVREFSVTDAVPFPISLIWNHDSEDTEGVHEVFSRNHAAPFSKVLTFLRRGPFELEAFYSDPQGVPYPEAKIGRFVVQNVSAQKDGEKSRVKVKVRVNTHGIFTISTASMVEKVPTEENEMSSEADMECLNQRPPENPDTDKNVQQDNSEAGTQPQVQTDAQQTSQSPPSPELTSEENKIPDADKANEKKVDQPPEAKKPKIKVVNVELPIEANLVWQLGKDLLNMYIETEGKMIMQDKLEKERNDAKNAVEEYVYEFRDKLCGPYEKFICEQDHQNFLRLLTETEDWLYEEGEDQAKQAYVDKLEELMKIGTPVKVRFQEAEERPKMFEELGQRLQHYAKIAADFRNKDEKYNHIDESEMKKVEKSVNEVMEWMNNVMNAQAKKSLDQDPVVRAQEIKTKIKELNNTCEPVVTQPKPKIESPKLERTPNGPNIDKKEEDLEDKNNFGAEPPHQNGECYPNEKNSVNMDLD
UniProt Q9H2S9: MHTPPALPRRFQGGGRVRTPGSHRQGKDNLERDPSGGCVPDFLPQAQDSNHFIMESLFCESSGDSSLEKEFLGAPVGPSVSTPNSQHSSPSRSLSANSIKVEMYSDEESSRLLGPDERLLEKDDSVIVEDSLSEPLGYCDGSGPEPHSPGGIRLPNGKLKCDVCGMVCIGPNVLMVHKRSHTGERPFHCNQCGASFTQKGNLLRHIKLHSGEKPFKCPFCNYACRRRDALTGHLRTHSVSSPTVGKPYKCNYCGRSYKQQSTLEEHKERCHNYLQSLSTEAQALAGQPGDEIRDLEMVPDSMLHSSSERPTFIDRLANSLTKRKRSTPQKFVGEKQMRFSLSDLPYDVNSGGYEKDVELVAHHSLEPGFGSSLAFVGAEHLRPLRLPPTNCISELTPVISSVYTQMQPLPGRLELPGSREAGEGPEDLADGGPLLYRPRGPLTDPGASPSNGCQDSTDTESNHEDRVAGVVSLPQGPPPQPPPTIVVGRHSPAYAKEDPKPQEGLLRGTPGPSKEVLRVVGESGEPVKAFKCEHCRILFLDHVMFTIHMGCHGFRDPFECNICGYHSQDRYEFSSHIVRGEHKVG
UniProt O14732: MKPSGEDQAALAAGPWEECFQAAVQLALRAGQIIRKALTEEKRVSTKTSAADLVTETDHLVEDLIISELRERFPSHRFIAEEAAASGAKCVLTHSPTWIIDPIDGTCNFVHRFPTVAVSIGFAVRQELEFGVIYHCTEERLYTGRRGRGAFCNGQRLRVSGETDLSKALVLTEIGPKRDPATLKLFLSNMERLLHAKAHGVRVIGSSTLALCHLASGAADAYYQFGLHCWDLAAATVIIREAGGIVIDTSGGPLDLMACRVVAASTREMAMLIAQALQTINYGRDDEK
UniProt Q8WYH8, whole entry, looked up: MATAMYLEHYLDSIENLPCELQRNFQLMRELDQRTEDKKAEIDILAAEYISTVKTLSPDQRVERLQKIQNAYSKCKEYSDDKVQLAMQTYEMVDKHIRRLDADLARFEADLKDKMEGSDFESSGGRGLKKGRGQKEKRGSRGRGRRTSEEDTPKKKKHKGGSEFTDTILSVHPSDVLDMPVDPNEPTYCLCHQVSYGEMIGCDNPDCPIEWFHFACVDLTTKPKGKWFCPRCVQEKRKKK
UniProt Q9Y5U9: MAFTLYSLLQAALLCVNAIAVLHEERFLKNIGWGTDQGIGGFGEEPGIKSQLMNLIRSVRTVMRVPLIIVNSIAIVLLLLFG
UniProt Q9Y2H2: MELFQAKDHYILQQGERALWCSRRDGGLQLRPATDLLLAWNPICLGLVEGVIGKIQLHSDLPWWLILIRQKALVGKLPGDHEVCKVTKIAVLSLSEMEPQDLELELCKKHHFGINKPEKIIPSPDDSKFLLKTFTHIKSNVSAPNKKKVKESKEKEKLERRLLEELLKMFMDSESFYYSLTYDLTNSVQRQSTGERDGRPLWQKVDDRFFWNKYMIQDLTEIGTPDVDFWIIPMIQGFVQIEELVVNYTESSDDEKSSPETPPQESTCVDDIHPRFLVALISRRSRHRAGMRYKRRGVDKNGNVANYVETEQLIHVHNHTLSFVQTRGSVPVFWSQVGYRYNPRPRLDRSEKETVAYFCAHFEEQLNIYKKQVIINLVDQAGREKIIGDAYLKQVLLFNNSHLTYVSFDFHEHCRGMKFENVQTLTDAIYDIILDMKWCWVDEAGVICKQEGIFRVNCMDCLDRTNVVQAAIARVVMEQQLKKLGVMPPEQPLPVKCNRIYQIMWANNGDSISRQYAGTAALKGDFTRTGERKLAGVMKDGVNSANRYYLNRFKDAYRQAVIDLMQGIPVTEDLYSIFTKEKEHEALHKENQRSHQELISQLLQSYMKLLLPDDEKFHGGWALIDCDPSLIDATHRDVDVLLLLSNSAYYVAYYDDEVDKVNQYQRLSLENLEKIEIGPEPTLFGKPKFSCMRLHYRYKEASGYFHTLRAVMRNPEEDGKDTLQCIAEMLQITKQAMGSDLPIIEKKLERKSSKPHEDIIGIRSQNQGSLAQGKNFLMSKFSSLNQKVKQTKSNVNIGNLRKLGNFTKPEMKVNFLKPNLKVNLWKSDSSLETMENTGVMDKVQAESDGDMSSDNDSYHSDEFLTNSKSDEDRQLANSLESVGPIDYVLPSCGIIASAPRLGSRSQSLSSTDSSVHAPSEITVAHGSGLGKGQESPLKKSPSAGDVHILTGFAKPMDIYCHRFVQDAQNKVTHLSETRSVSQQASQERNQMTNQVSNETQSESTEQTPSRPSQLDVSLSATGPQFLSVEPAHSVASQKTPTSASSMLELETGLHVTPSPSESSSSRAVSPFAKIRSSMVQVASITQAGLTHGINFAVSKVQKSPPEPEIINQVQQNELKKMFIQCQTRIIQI
UniProt Q96T52: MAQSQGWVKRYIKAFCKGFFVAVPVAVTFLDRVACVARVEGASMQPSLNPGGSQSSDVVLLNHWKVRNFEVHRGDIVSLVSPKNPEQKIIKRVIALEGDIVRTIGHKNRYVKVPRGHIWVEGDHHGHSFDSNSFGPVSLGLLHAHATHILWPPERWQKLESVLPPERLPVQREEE
UniProt P61604, whole entry, looked up: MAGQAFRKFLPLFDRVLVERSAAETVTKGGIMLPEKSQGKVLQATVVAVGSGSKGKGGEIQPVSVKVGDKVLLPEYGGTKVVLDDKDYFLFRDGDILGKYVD
UniProt A2RU49: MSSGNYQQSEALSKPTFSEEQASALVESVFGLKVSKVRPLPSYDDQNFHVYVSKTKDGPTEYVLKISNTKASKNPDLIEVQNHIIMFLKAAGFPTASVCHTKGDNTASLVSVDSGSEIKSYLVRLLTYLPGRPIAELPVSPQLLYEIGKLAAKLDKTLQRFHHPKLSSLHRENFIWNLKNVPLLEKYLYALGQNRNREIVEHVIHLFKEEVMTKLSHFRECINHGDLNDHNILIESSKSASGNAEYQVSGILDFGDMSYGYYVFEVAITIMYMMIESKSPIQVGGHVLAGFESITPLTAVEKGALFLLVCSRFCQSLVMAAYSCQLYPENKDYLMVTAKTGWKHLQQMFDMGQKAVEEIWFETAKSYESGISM

Columns and labels:
Assay in all cases: log2 fold change, soluble protein after heating vs DMSO (PISA); higher = thermal stabilisation; K562 lysate, 10 uM; active = over 0.2 and 3.5 SD of the protein, either way, in both replicates (recomputed)
[1] = compound: C=CC(=O)N1CCC[C@@H](n2nc(-c3ccc(Oc4ccccc4)cc3)c3c(N)ncnc32)C1 [ibrutinib]
In short: (§1)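 Following dounce homogenisation of K562 pellets in PBS pH 7.4 with 1 mM MgCl2, crude extract at 1 mg/mL protein was incubated for 30 min with 10 μM compound. Aliquots were then heated for 3 min over 48°C-58°C and pooled, NP-40 was added to 0.5% at 4°C, and soluble protein was recovered as the supernatant at 21,000xg for 90 min. Channel-sum-equalised TMTpro 16plex LC-MS/MS quantified this protein. Each value, from duplicates, is a log-two fold change in thermal stability relative to solvent controls.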

[2] = compound: CC(=O)c1cnc2ccc(-c3cc(Cl)c(O)c(Cl)c3)nc2c1N[C@H]1CC[C@H](CN(C)C)CC1
In short: as §1

[3] = compound: CC(C)(C)Cn1c(N)nc2ccc(-c3[nH]c(C(C)(C)C)nc3-c3ccc(F)cc3)nc21 [ralimetinib]
In short: as §1

[4] = compound: CC(C)(O)CC(=O)NCCn1ccc2ncnc(Nc3ccc(Oc4cccc(C(F)(F)F)c4)c(Cl)c3)c21
In short: as §1

[5] = compound: CC(C)C1=C2N=C(C=C(N2N=C1)NCC3=CC=CC=C3)NCCCCCCN
In short: as §1

[6] = compound: CC1=C(C(CC(=O)N1)C2=CC=C(C=C2)C(F)(F)F)C(=O)NC3=C(C=C4C(=C3)C=NN4)F
In short: as §1

[7] = compound: CC1=C(C2=C(C=C1)C(=O)C3=CC=CC=C3N2CCCN)C
In short: as §1

[8] = compound: CC1=C(C=C(C=C1)NC(=O)C2=CC(=CC=C2)C(C)(C)C#N)NC3=CC4=C(C=C3)N=CN(C4=O)C
In short: as §1

[9] = compound: CC1=C(C=C(C=C1)NC(=O)C2=CC(=CC=C2)N(C)C)NC(=O)C3=CC=C(C=C3)O
In short: as §1

[10] = compound: CC1=CC=C(C=C1)SC2=C3C=C(SC3=CN=C2)C(=O)N
In short: as §1

[11] = compound: CCCS(=O)(=O)Nc1ccc(F)c(C(=O)c2c[nH]c3ncc(-c4ccc(Cl)cc4)cc23)c1F [vemurafenib]
In short: as §1

[12] = compound: CCCS(=O)(=O)Nc1ccc(F)c(C(=O)c2c[nH]c3ncc(Cl)cc23)c1F
In short: as §1

[13] = compound: CCN(CCCOc1ccc2c(Nc3cc(CC(=O)Nc4cccc(F)c4)[nH]n3)ncnc2c1)CCOP(=O)(O)O [barasertib]
In short: as §1

[14] = compound: CC[C@@H]1C(=O)N(C)c2cnc(Nc3ccc(C(=O)NC4CCN(C)CC4)cc3OC)nc2N1C1CCCC1
In short: as §1

[15] = compound: CC[C@@H]1C(=O)N(C)c2cnc(Nc3ccc(C(=O)N[C@H]4CC[C@H](N5CCN(CC6CC6)CC5)CC4)cc3OC)nc2N1C(C)C [volasertib]
In short: as §1

[16] = compound: CCn1c(C(=O)N(C2CC2)C2CC2)cc2c3c(ncn3C)c(Nc3cc(C)n(C)n3)nc21
In short: as §1

[17] = compound: CCn1cc(-c2ccnc3[nH]c(-c4cccc(CN(C)C)c4)cc23)c(-c2ccc(NC(=O)N(C)C)cc2)n1
In short: as §1

[18] = compound: CN1CCC(CNc2ccc3ncc(-c4cccc(OC(F)(F)F)c4)n3n2)CC1
In short: as §1

[19] = compound: CN1CCN(CCOc2cc(OC3CCOCC3)c3c(Nc4c(Cl)ccc5c4OCO5)ncnc3c2)CC1 [saracatinib]
In short: as §1

[20] = compound: CN1CCN(c2nc(C3=C(c4c[nH]c5ccccc45)C(=O)NC3=O)c3ccccc3n2)CC1 [sotrastaurin]
In short: as §1

Measured: log2 fold change

IMPDH2 (UniProt P12268)
inactive: [1] 0.049 | [2] -0.003 | [3] 0.034 | [4] 0.028 | [5] 0.025 | [6] -0.034 | [7] 0.019 | [8] 0.017 | [9] -0.006 | [10] 0.016 | [11] 0.015 | [12] 0.009 | [13] -0.056 | [14] -0.015 | [15] 0.012 | [16] 0.039 | [17] 0.11 | [18] 0.01 | [19] -0.001 | [20] -0.005

INPP5K (UniProt Q9BT40)
inactive: [1] -0.297 | [2] -0.019 | [3] 0.071 | [4] 0.034 | [5] -0.044 | [6] 0.079 | [7] -0.009 | [8] 0.002 | [9] 0.123 | [10] 0 | [11] 0.022 | [12] -0.002 | [13] 0.072 | [14] -0.082 | [15] -0.009 | [16] -0.088 | [17] -0.059 | [18] 0.097 | [19] -0.04 | [20] 0.022

HSPD1 (UniProt P10809)
inactive: [1] -0.008 | [2] -0.005 | [3] -0.03 | [4] -0.002 | [5] 0.016 | [6] -0.027 | [7] -0.012 | [8] -0.006 | [9] -0.013 | [10] -0.006 | [11] 0.004 | [12] -0.008 | [13] -0.021 | [14] 0.03 | [15] 0.037 | [16] -0.023 | [17] 0.003 | [18] -0.022 | [19] 0.002 | [20] -0.026

HSPH1 (UniProt Q92598)
inactive: [1] -0.03 | [2] -0.014 | [3] 0.001 | [4] -0.014 | [5] -0.004 | [6] 0.011 | [7] 0 | [8] -0.026 | [9] 0.018 | [10] 0.006 | [11] -0.006 | [12] -0.004 | [13] -0.019 | [14] 0.019 | [15] -0.006 | [16] 0.006 | [17] -0.004 | [18] 0.003 | [19] -0.005 | [20] -0.002

IKZF4 (UniProt Q9H2S9)
inactive: [1] 0.081 | [2] 0.021 | [3] 0 | [4] -0.062 | [6] 0.039 | [8] -0.001 | [9] 0.052 | [10] -0.072 | [12] -0.042 | [13] 0.041 | [14] -0.186 | [15] -0.063 | [16] 0.088 | [20] 0.01

IGKC (UniProt P01834)
inactive: [1] -0.32 | [2] 0.202 | [3] -0.028 | [4] 0.369 | [5] 1.66 | [6] 2.07 | [7] -0.095 | [9] -0.04 | [10] -0.045 | [12] 0.074 | [13] -0.106 | [14] -0.056 | [15] 0.06 | [16] 0.063 | [17] 0.605 | [18] -0.211 | [19] -0.094

Fetched one by one from the list above (2):
IKZF4 (UniProt Q9H2S9)
inactive: [1] 0.081 | [2] 0.021 | [3] 0 | [4] -0.062 | [6] 0.039 | [8] -0.001 | [9] 0.052 | [10] -0.072 | [12] -0.042 | [13] 0.041 | [14] -0.186 | [15] -0.063 | [16] 0.088 | [20] 0.01

HSPD1 (UniProt P10809)
inactive: [1] -0.008 | [2] -0.005 | [3] -0.03 | [4] -0.002 | [5] 0.016 | [6] -0.027 | [7] -0.012 | [8] -0.006 | [9] -0.013 | [10] -0.006 | [11] 0.004 | [12] -0.008 | [13] -0.021 | [14] 0.03 | [15] 0.037 | [16] -0.023 | [17] 0.003 | [18] -0.022 | [19] 0.002 | [20] -0.026

Next entries:

IMPA2 (UniProt O14732)
inactive: [1] 0.03 | [2] 0.038 | [3] 0.016 | [4] 0.112 | [5] -0.12 | [7] 0.028 | [8] 0.014 | [9] -0.017 | [10] 0.12 | [11] 0.002 | [12] -0.002 | [13] 0.131 | [14] -0.098 | [15] -0.051 | [16] 0.09 | [17] 0.149 | [18] 0.051 | [19] 0.039 | [20] 0.009

ING5 (UniProt Q8WYH8)
inactive: [1] 0.006 | [2] -0.014 | [3] -0.13 | [4] -0.177 | [5] -0.028 | [6] -0.066 | [7] -0.054 | [9] 0.072 | [10] -0.059 | [12] 0.035 | [13] 0.03 | [14] 0.078 | [15] -0.058 | [16] -0.271 | [19] 0.041

IMPDH2 (UniProt H0Y4R1)
inactive: [1] -0.025 | [2] -0.047 | [3] -0.069 | [4] -0.112 | [6] -0.019 | [7] 0.032 | [8] -0.04 | [9] 0.062 | [10] 0.032 | [11] -0.047 | [12] 0.114 | [13] 0.134 | [14] 0.195 | [15] 0.001 | [16] -0.1 | [17] 0.059 | [18] 0.129 | [19] 0.043 | [20] 0.116

IER3IP1 (UniProt Q9Y5U9)
inactive: [1] -0.056 | [2] -0.047 | [3] 0.278 | [4] -0.092 | [5] -0.171 | [6] 0.018 | [7] -0.072 | [9] 0.278 | [10] -0.015 | [11] 0.037 | [12] 0.084 | [13] 0.242 | [14] -0.001 | [15] 0 | [16] -0.01 | [17] -0.188 | [18] 0.094 | [19] -0.002

HUWE1, A0A087X1S3
inactive: [1] 0.038 | [2] 0.046 | [3] -0.129 | [4] -0.092 | [7] -0.148 | [9] 0 | [10] -0.006 | [12] 0.052 | [13] -0.089 | [14] 0.008 | [15] -0.028 | [16] -0.114 | [17] 0.043 | [18] 0.241 | [19] 0.074

INPP5F (UniProt Q9Y2H2)
inactive: [1] -0.089 | [2] -0.41 | [3] -0.122 | [4] -0.381 | [5] 0.005 | [6] -0.128 | [7] -0.201 | [9] -0.015 | [10] -0.29 | [11] 0.361 | [12] 0.096 | [13] 0.083 | [14] 0.582 | [15] 0.037 | [16] -0.357 | [17] -0.335 | [18] 0.192 | [19] -0.006

IMMP2L (UniProt Q96T52)
inactive: [1] -0.041 | [2] -0.01 | [3] 0.035 | [4] -0.041 | [5] -0.026 | [6] -0.068 | [7] -0.062 | [8] -0.011 | [9] 0.126 | [10] 0.066 | [11] 0.013 | [12] -0.028 | [13] 0.145 | [14] 0.095 | [15] 0.017 | [16] -0.032 | [17] -0.079 | [18] 0.003 | [19] 0.038 | [20] 0.061

HSPA8 (UniProt E9PN89)
inactive: [1] 0.081 | [2] -0.051 | [3] 0.034 | [4] -0.215 | [5] 0.007 | [6] -0.036 | [7] 0.017 | [8] 0.093 | [9] 0.231 | [10] -0.083 | [12] -0.06 | [13] -0.041 | [14] 0.057 | [15] -0.005 | [16] -0.114 | [17] -0.366 | [18] 0.32 | [19] -0.01 | [20] 0.308

HSPE1 (UniProt P61604)
inactive: [1] -0.012 | [2] 0.035 | [3] -0.029 | [4] -0.009 | [5] 0.024 | [6] -0.107 | [7] 0.029 | [8] 0.015 | [9] -0.018 | [10] 0.017 | [11] -0.009 | [12] -0.02 | [13] 0.086 | [14] -0.01 | [15] 0.064 | [16] 0.004 | [17] -0.038 | [18] -0.031 | [19] -0.004 | [20] -0.017

HYKK (UniProt A2RU49)
inactive: [1] 0.052 | [2] 0.209 | [3] -0.182 | [4] -0.115 | [5] 0.193 | [6] 0.09 | [8] 0.092 | [9] -0.226 | [10] -0.057 | [12] 0.04 | [13] -0.09 | [14] 0.115 | [15] 0.004 | [16] 0 | [20] 0.152

HTD2 (UniProt P86397)
inactive: [1] 0.009 | [2] -0.017 | [3] 0.013 | [4] 0.027 | [6] -0.05 | [8] -0.026 | [9] -0.035 | [10] -0.046 | [11] -0.013 | [12] 0 | [13] 0.128 | [14] -0.065 | [15] 0 | [16] 0.128 | [17] -0.037 | [18] 0.026 | [20] 0.038
